Test results published in the supplement of paper PMC12889115.
Some of the results follow. These are raw signals, not scaled to a control.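 In the initial screen, polymyxin B was used at a concentration that permeabilizes Salmonella's outer membrane but not its inner membrane. Maximum growth was set by DMSO wells with or without polymyxin B. Since plates varied, data were ranked per plate, and compounds giving the lowest OD600 advanced as hits.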

Test system: Salmonella enterica serovar Typhimurium SL1344
Test: bacterial growth OD600 after 18 h with compound and polymyxin B; higher = more bacterial growth (less inhibition)
Settings: 50 µM, Mueller-Hinton broth

Compound: CN1CCC(N2CCC(Oc3cccc(C(=O)NCCc4ccccc4)c3)CC2)CC1
- bacterial growth OD600 (polymyxin B 0.75 µg/mL): 0.966

Compound: Cc1ncc2c(c1CNC(=O)c1ccc3c(c1)OCO3)CCN(C(=O)CSc1ccccc1)C2
- bacterial growth OD600 (polymyxin B 0.75 µg/mL): 0.747

Compound: O=C1CCC(C(=O)N2CCc3c(Cl)cccc3C2)CN1Cc1ccccn1 (stereo not given)
- bacterial growth OD600 (polymyxin B 1 µg/mL): 1.3

Compound: COc1ccc(CC(=O)NC2CC(=O)N(CC3CCCCC3)C2)cc1 (stereo not given)
- bacterial growth OD600 (polymyxin B 1 µg/mL): 0.861

Compound: O=C(CCC1(Cc2cccs2)CCC(=O)N1)NCc1csc(-c2ccccc2)n1 (stereo not given)
- bacterial growth OD600 (polymyxin B 0.75 µg/mL): 0.831

Compound: O=C1CCC(C(=O)N2CCC(N3CCSCC3)CC2)CN1CCc1ccccn1 (stereo not given)
- bacterial growth OD600 (polymyxin B 1 µg/mL): 0.88

Compound: COc1ccc(-c2cn3c(C(=O)N(C)CCc4ccccn4)csc3n2)cc1F
- bacterial growth OD600 (polymyxin B 0.75 µg/mL): 0.835

Compound: Cc1c[nH]c(C(=O)N2CCC(C3CCN(Cc4cccnc4)CC3)C2)n1 (stereo not given)
- bacterial growth OD600 (polymyxin B 0.75 µg/mL): 0.877

Compound: CN(Cc1cccc2cnccc12)C(=O)c1cc(COc2ccc(F)cc2F)on1
- bacterial growth OD600 (polymyxin B 1 µg/mL): 0.493

Compound: CCOC(=O)C1(Cc2cccc(OC)c2)CCCN(S(=O)(=O)c2cc(C)cs2)C1 (stereo not given)
- bacterial growth OD600 (polymyxin B 1 µg/mL): 0.502

Compound: CCOC(=O)C1(Cc2cccc(OC)c2)CCN(Cc2nc3ccccc3[nH]2)CC1
- bacterial growth OD600 (polymyxin B 1 µg/mL): 0.826

Compound: Cc1cnc(-n2ncc(C(=O)NCCc3ccncc3)c2C2CC2)nc1-c1cccs1
- bacterial growth OD600 (polymyxin B 0.75 µg/mL): 0.815

Compound: CC(=O)NCCC1CCCCN1Cc1nc(C2(c3ccc(C)cc3)CCCC2)no1 (stereo not given)
- bacterial growth OD600 (polymyxin B 1 µg/mL): 0.019

Compound: CCOC(=O)C1(CC2CCCCO2)CCN(Cc2cccc(C(F)(F)F)c2)CC1 (stereo not given)
- bacterial growth OD600 (polymyxin B 0.75 µg/mL): 0.831

Compound: c1csc(CNc2nc(CN3CCc4ccccc4C3)nc3ccccc23)c1
- bacterial growth OD600 (polymyxin B 0.75 µg/mL): 0.003

Compound: COc1ccc(CCCN2C(=O)O[C@@H]3CN(S(=O)(=O)N4CCCC4)C[C@@H]32)cc1
- bacterial growth OD600 (polymyxin B 1 µg/mL): 0.909

Compound: CN(Cc1ncc[nH]1)C(=O)CCc1nnc(CCC2CCCCC2)o1
- bacterial growth OD600 (polymyxin B 1 µg/mL): 1.08

Compound: CCS(=O)(=O)c1ncc(CN2CCCCC2c2cccnc2)n1CCc1ccccc1 (stereo not given)
- bacterial growth OD600 (polymyxin B 1 µg/mL): 0.012

Compound: CCCCc1nc2cc(C(=O)NCC(O)COC)ccc2o1 (stereo not given)
- bacterial growth OD600 (polymyxin B 1 µg/mL): 0.844

Compound: Cc1ccc(C(=O)NC(C)c2cnn(-c3ccccc3C)c2C)cn1 (stereo not given)
- bacterial growth OD600 (polymyxin B 1 µg/mL): 0.879
